Patent US10189805B2, “Metabolism probes for therapy and diagnosis” (Vanderbilt University, priority 2014, dated 2019)
At least one compound was matched to its structure with a doubt left.

Protein sequences, listed by entry. Tags and fused reporters are not part of them. Lines headed by an entry give the natural chain unless they say otherwise; changes in a name come on top.
UniProt Q15758: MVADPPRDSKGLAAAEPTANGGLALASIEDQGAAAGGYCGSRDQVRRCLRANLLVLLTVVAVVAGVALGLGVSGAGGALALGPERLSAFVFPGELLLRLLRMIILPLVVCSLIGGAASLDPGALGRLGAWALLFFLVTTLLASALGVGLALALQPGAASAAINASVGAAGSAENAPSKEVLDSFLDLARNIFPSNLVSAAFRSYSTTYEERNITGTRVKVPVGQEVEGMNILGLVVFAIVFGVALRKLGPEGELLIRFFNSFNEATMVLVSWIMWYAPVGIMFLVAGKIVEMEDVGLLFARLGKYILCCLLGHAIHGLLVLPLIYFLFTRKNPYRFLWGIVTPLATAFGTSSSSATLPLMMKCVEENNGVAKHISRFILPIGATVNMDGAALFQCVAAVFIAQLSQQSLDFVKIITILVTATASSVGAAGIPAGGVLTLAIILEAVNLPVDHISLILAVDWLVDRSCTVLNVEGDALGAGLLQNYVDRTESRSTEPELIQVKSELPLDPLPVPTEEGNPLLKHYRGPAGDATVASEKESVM

Molecular target: ASCT2 (Homo sapiens (Human), UniProt Q15758)
Test: 3H-glutamine uptake inhibition in live HEK-293 cells
Assay type: cell-based
Text: Initial compound libraries focused on 2, 3, and 4 substituted Nγ-glutamylanilides with aryl, alicyclic, and heterocyclic substitutions. To evaluate the biological activity, compounds were initially screened at a single concentration for their ability to inhibit ^3H-glutamine uptake in live HEK-293 cells, an established model suitable for evaluating ASCT2 activity. […] The present inventors prioritized the 2-substitution as a determinant of ASCT2 activity among this series.
The glutamine uptake assays in HEK293 cells were carried out in 96 well plates (CulturPlate-96, Perkin Elmer). Cells were plated at a density of 35,000 cells per well 24 hours prior to carrying out the assay. Each set of conditions is carried out in triplicate. The wells are washed three times with 100 uL of assay buffer at pH 6.0 (containing 137 mM NaCl, 5.1 mM KCl, 0.77 mM KH2PO4, 0.71 mM MgSO4.7H2O, 1.1 mM CaCl2, 10 mM D-glucose, and 10 mM HEPES). […] (500 nM) in the same buffer is added along with inhibitor and allowed to incubate for 15 min at 37° C. Following incubation, the H-glutamine/inhibitor is removed and the cells are washed three times with buffer. The cells are then lysed by the addition of 50 uL 1M NaOH. 150 uL of scintillation fluid (Microscint 40, Perkin Elmer) is added and the plates are counted on a scintillation counter (Topcount, Perkin Elmer).

N[C@@H](CCC(=O)Nc1ccccc1CN1CCOCC1)C(=O)O [Compound 5, N-(2-(morpholinomethyl)phenyl)-L-glutamine]
improvement in potency over GPNA (3H-glutamine uptake assay, IC50 versus GPNA): threefold
potency compared with GPNA (in words) (3H-glutamine uptake, HEK-293 cells): significantly greater potency than GPNA
